Source: PubChem BioAssay AID1508597 (Cure First, 2020)
Test: 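Survival screen with siRNA in ovarian cancer cells derived from patients, with or without rucaparib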 (primary screen). Cell system: human ovarian carcinoma lines grown from tumours: OCI-P5x (papillary serous) and OCI-C5x (clear cell). Reagent: siRNA pool against human genes, 1.25 pmol siRNA per well. Timing: 72 h or 96 h, depending on the cell culture. Conditions: rucaparib 20 µM (about IC30) or vehicle, present until read-out. Rucaparib or vehicle: Rucaparib. Cell line: OCI-P5x (serous). Detection: 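ATP luminescence measured at 72 or 96 h according to the culture, then normalised and expressed as percent viability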. Reading the numbers: viability, normalised: higher = more viable cells remaining. Active means: 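Active when normalised viability falls below 80 percent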. Meaning of the calls: active = viability under 80%; inactive = viability 80% or more.
Shown is a random part of the about 2,100 reagents, under one of the conditions tested. 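Calls flag viability under 80% in either arm, not effects specific to rucaparib; the reference for percent is not stated.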 Not given: the 100% reference.

Gene	technical replicate	viability, normalised (%)	Outcome
ERBB2	1	93.5	inactive
ERBB2	2	85	inactive
ERBB2	3	91.3	inactive
TDRD9	1	76	active
TDRD9	2	71.8	active
TDRD9	3	71.2	active
GTF3C4	1	43.2	active
GTF3C4	2	44.9	active
GTF3C4	3	40.3	active
INO80	1	64.7	active
INO80	2	59.2	active
INO80	3	62.4	active
ALG8	1	64.6	active
ALG8	2	68.1	active
ALG8	3	59.1	active
CLDN1	1	79.2	active
CLDN1	2	68.7	active
CLDN1	3	77	active
TSPYL2	1	86.4	inactive
TSPYL2	2	77	active
TSPYL2	3	60.1	active
PFKFB3	1	68.2	active
PFKFB3	2	54.2	active
PFKFB3	3	50	active

Records listed so far whose gene name starts with G or g:
Gene	technical replicate	viability, normalised (%)	Outcome
GTF3C4	1	43.2	active
GTF3C4	2	44.9	active
GTF3C4	3	40.3	active
